Experimental data from paper doi:10.1101/181321 (bioRxiv, 2017).
Results are given in words; binding and its absence hold for the method and conditions named. Where a sequence is shown, tags or fusion partners need not be part of it.

Chains of the proteins cited; added tags and fusions are not shown. Residues count along the entry.
UniProt Q8TEX9, residues 668-1081: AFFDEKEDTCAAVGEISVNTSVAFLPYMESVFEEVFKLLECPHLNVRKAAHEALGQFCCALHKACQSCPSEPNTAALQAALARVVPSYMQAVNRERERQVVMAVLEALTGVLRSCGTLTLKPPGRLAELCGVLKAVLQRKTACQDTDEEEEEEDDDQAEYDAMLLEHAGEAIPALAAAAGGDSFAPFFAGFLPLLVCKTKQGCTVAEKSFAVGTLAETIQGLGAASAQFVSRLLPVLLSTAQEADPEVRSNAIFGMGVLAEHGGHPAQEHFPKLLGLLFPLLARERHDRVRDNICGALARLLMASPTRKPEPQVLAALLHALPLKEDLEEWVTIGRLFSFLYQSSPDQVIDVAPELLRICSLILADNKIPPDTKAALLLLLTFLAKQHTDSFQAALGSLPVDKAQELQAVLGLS

B1: histone H3 peptide (1-11 a.a.) (peptide)
peptide: ARTKQTARKST
B2: histone H3 peptide (1-6 a.a.) (peptide)
peptide: ARTKQT

Target: C-terminal region of human Importin4 (C-Importin4, residues 668 to 1081) (human) (UniProt Q8TEX9)
Assay: SPR

Row | Binder | binding
1 | B1 | no binding (tested: 8 μM)
2 | B2 | no binding (tested: 8 μM)
